# Test results as given in the supplement of paper PMC8728848.
# Some of the results follow.
# Key:
# Assay in all cases: glycan array binding signal (z-score within array); higher = stronger binding
# Conditions in all cases: glycan notation: IUPAC condensed, linker removed
# Fuc(a1-3)GlcNAc = target: Fuc(a1-3)GlcNAc
# In short: (§1)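 Glycan array data came from 3228 arrays in the Consortium for Functional Glycomics database, and only arrays with an available protein sequence were kept. Glycan names were put into IUPAC-condensed notation, and columns mapping to the same glycan were averaged. The binding signal is a within-array Z-score, averaged across arrays of one protein sequence run at different concentrations or buffers and across linkers. A negative Z-score can be read as non-binding.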
# [1] = target: Fuc(a1-3)[Gal(b1-4)]Glc6S
# In short: as §1
# [2] = target: Fuc(a1-3)[Gal(b1-4)]GlcNAc
# In short: as §1
# [3] = target: Fuc(a1-3)[Gal(b1-4)]GlcNAc(b1-2)Man
# In short: as §1
# [4] = target: Fuc(a1-3)[Gal(b1-4)]GlcNAc(b1-2)Man(a1-3)[Fuc(a1-3)[Gal(b1-4)]GlcNAc(b1-2)Man(a1-6)]Man(b1-4)GlcNAc(b1-4)GlcNAc
# In short: as §1
# [5] = target: Fuc(a1-3)[Gal(b1-4)]GlcNAc(b1-2)Man(a1-3)[Fuc(a1-3)[Gal(b1-4)]GlcNAc(b1-2)Man(a1-6)]Man(b1-4)GlcNAc(b1-4)[Fuc(a1-6)]GlcNAc
# In short: as §1
# [6] = target: Fuc(a1-3)[Gal(b1-4)]GlcNAc(b1-3)Gal(b1-3)[Fuc(a1-4)]GlcNAc
# In short: as §1
# [7] = target: Fuc(a1-3)[Gal(b1-4)]GlcNAc(b1-3)Gal(b1-4)[Fuc(a1-3)]GlcNAc
# In short: as §1
# [8] = target: Fuc(a1-3)[Gal(b1-4)]GlcNAc(b1-3)Gal(b1-4)[Fuc(a1-3)]GlcNAc(b1-3)Gal(b1-4)[Fuc(a1-3)]GlcNAc
# In short: as §1
# [9] = target: Fuc(a1-3)[Gal(b1-4)]GlcNAc(b1-3)GalNAc
# In short: as §1
# [10] = target: Fuc(a1-3)[Gal(b1-4)]GlcNAc(b1-6)GalNAc
# In short: as §1
# [11] = target: Fuc(a1-3)[Gal(b1-4)]GlcNAc(b1-6)[Gal(b1-3)GlcNAc(b1-3)]Gal(b1-4)Glc
# In short: as §1
# [12] = target: Fuc(a1-3)[Gal(b1-4)]GlcNAc6S
# In short: as §1
# [13] = target: Fuc(a1-3)[Gal3S(b1-4)]Glc
# In short: as §1
# [14] = target: Fuc(a1-3)[Gal3S(b1-4)]GlcNAc
# In short: as §1
# [15] = target: Fuc(a1-3)[Gal3S(b1-4)]GlcNAc6S
# In short: as §1
# [16] = target: Fuc(a1-3)[GalNAc(b1-4)]GlcNAc
# In short: as §1
# [17] = target: Fuc(a1-3)[GalNAc(b1-4)]GlcNAc6S
# In short: as §1
# Fuc(a1-4)GlcNAc = target: Fuc(a1-4)GlcNAc
# In short: as §1
# Fuc(b1-3)GlcNAc = target: Fuc(b1-3)GlcNAc
# In short: as §1
# Gal(a1-2)Gal = target: Gal(a1-2)Gal
# In short: as §1
# Gal(a1-3)Gal = target: Gal(a1-3)Gal
# In short: as §1
# Gal(a1-3)Gal(b1-3)GlcNAc = target: Gal(a1-3)Gal(b1-3)GlcNAc
# In short: as §1
# [18] = target: Gal(a1-3)Gal(b1-3)GlcNAc(b1-2)Man
# In short: as §1
# [19] = target: Gal(a1-3)Gal(b1-3)GlcNAc(b1-2)Man(a1-3)[Gal(a1-3)Gal(b1-3)GlcNAc(b1-2)Man(a1-6)]Man(b1-4)GlcNAc(b1-4)GlcNAc
# In short: as §1
# [20] = target: Gal(a1-3)Gal(b1-3)GlcNAc(b1-3)GalNAc
# In short: as §1
# [21] = target: Gal(a1-3)Gal(b1-3)GlcNAc(b1-6)GalNAc
# In short: as §1
# [22] = target: Gal(a1-3)Gal(b1-3)[Fuc(a1-4)]GlcNAc(b1-2)Man(a1-3)[Gal(a1-3)Gal(b1-3)[Fuc(a1-4)]GlcNAc(b1-2)Man(a1-6)]Man(b1-4)GlcNAc(b1-4)GlcNAc
# In short: as §1
# Gal(a1-3)Gal(b1-4)Glc = target: Gal(a1-3)Gal(b1-4)Glc
# In short: as §1
# Gal(a1-3)Gal(b1-4)GlcNAc = target: Gal(a1-3)Gal(b1-4)GlcNAc
# In short: as §1
# [23] = target: Gal(a1-3)Gal(b1-4)GlcNAc(b1-2)Man
# In short: as §1
# [24] = target: Gal(a1-3)Gal(b1-4)GlcNAc(b1-2)Man(a1-3)[Gal(a1-3)Gal(b1-4)GlcNAc(b1-2)Man(a1-6)]Man(b1-4)GlcNAc(b1-4)GlcNAc
# In short: as §1
# [25] = target: Gal(a1-3)Gal(b1-4)GlcNAc(b1-3)GalNAc
# In short: as §1
# [26] = target: Gal(a1-3)Gal(b1-4)GlcNAc(b1-6)GalNAc
# In short: as §1
# [27] = target: Gal(a1-3)Gal(b1-4)[Fuc(a1-3)]GlcNAc
# In short: as §1
# [28] = target: Gal(a1-3)Gal(b1-4)[Fuc(a1-3)]GlcNAc(b1-2)Man(a1-3)[Gal(a1-3)Gal(b1-4)[Fuc(a1-3)]GlcNAc(b1-2)Man(a1-6)]Man(b1-4)GlcNAc(b1-4)GlcNAc
# In short: as §1
# Gal(a1-3)GalNAc = target: Gal(a1-3)GalNAc
# In short: as §1
# [29] = target: Gal(a1-3)[Gal(a1-4)]Gal(b1-4)GlcNAc
# In short: as §1
# [30] = target: Gal(a1-4)Gal(b1-3)GlcNAc(b1-2)Man(a1-3)[Gal(a1-4)Gal(b1-3)GlcNAc(b1-2)Man(a1-6)]Man(b1-4)GlcNAc(b1-4)GlcNAc
# In short: as §1
# Gal(a1-4)Gal(b1-4)Glc = target: Gal(a1-4)Gal(b1-4)Glc
# In short: as §1
# Gal(a1-4)Gal(b1-4)GlcNAc = target: Gal(a1-4)Gal(b1-4)GlcNAc
# In short: as §1
# [31] = target: Gal(a1-4)Gal(b1-4)GlcNAc(b1-2)Man(a1-3)[Gal(a1-4)Gal(b1-4)GlcNAc(b1-2)Man(a1-6)]Man(b1-4)GlcNAc(b1-4)GlcNAc
# In short: as §1
# [32] = target: Gal(a1-4)Gal(b1-4)GlcNAc(b1-3)Gal(b1-4)Glc
# In short: as §1
# Gal(a1-4)GlcNAc = target: Gal(a1-4)GlcNAc
# In short: as §1
# Gal(a1-6)Glc = target: Gal(a1-6)Glc
# In short: as §1
binder,measurement,setting,value
"MXA PilAct-eGFP (Myxococcus xanthus), Q59589 (protein) MRVSRFNPRNRGFTLIELMIVVAIIGILAAIAIPNFIKFQARSKQSEAKTNLKALYTAQKSFFSEKDRYSDFANEIGFAPERGNRYGYRVSAAAGDCEVRNAADLPVPAAGVPCISNDSFRFGANSAIDDPTPVVARFVPQGAAGWNTTLGVQPTIADCPNCNFFAGARGNADNEATFDDWVIAGFEGSGQVGPCSEAGNVASGTPYNTRNDVACDGAAQ",glycan array binding signal (z-score),Fuc(a1-3)GlcNAc,0.615
same,glycan array binding signal (z-score),[1],-0.344
same,glycan array binding signal (z-score),[2],0.393
same,glycan array binding signal (z-score),[3],0.5
same,glycan array binding signal (z-score),[4],-0.131
same,glycan array binding signal (z-score),[5],-0.632
same,glycan array binding signal (z-score),[6],0.249
same,glycan array binding signal (z-score),[7],0.796
same,glycan array binding signal (z-score),[8],-0.942
same,glycan array binding signal (z-score),[9],-1.2
same,glycan array binding signal (z-score),[10],-0.084
same,glycan array binding signal (z-score),[11],-0.768
same,glycan array binding signal (z-score),[12],2
same,glycan array binding signal (z-score),[13],-1.11
same,glycan array binding signal (z-score),[14],-0.591
same,glycan array binding signal (z-score),[15],0.123
same,glycan array binding signal (z-score),[16],-1.22
same,glycan array binding signal (z-score),[17],-0.844
same,glycan array binding signal (z-score),Fuc(a1-4)GlcNAc,-0.393
same,glycan array binding signal (z-score),Fuc(b1-3)GlcNAc,0.03
same,glycan array binding signal (z-score),Gal(a1-2)Gal,-0.693
same,glycan array binding signal (z-score),Gal(a1-3)Gal,-1.65
same,glycan array binding signal (z-score),Gal(a1-3)Gal(b1-3)GlcNAc,-1.1
same,glycan array binding signal (z-score),[18],0.273
same,glycan array binding signal (z-score),[19],-0.827
same,glycan array binding signal (z-score),[20],0.883
same,glycan array binding signal (z-score),[21],-0.303
same,glycan array binding signal (z-score),[22],2.07
same,glycan array binding signal (z-score),Gal(a1-3)Gal(b1-4)Glc,0.542
same,glycan array binding signal (z-score),Gal(a1-3)Gal(b1-4)GlcNAc,0.619
same,glycan array binding signal (z-score),[23],1.01
same,glycan array binding signal (z-score),[24],1.26
same,glycan array binding signal (z-score),[25],-1.13
same,glycan array binding signal (z-score),[26],-0.61
same,glycan array binding signal (z-score),[27],0.279
same,glycan array binding signal (z-score),[28],0.257
same,glycan array binding signal (z-score),Gal(a1-3)GalNAc,-0.371
same,glycan array binding signal (z-score),[29],-0.747
same,glycan array binding signal (z-score),[30],1.33
same,glycan array binding signal (z-score),Gal(a1-4)Gal(b1-4)Glc,-0.91
same,glycan array binding signal (z-score),Gal(a1-4)Gal(b1-4)GlcNAc,0.09
same,glycan array binding signal (z-score),[31],-0.501
same,glycan array binding signal (z-score),[32],-0.534
same,glycan array binding signal (z-score),Gal(a1-4)GlcNAc,-1.38
same,glycan array binding signal (z-score),Gal(a1-6)Glc,-0.016

# 2 entries from above, with bars between the fields.
binder | measurement | setting | value
MXA PilAct-eGFP (Myxococcus xanthus), Q59589 (protein) MRVSRFNPRNRGFTLIELMIVVAIIGILAAIAIPNFIKFQARSKQSEAKTNLKALYTAQKSFFSEKDRYSDFANEIGFAPERGNRYGYRVSAAAGDCEVRNAADLPVPAAGVPCISNDSFRFGANSAIDDPTPVVARFVPQGAAGWNTTLGVQPTIADCPNCNFFAGARGNADNEATFDDWVIAGFEGSGQVGPCSEAGNVASGTPYNTRNDVACDGAAQ | glycan array binding signal (z-score) | [21] | -0.303
same | glycan array binding signal (z-score) | Gal(a1-3)GalNAc | -0.371
